Test results from US20140093888A1.
Results are given in words; binding and its absence hold for the method and conditions named. Some binding calls cover weakened binding; strength is not graded here. Sequences can lack the tags named with a protein.

Molecular target: recombinant colanic acid degrading enzyme (CAE), amino acids 107-790 with 6 histidines at the N-terminus (bacteriophage NST1)
Test: analytical ultracentrifugation, self-association (homotrimer)

binding: binds
B1: recombinant colanic acid degrading enzyme (CAE), amino acids 107-790 with 6 histidines at the N-terminus (enzyme)
chain: MGHHHHHHLAPLDRAVRVPNSEVSINALPNVAGRRNKALGFDSNGQPFMIPLVDIPDSALAIALAMADGGKWIGTLGGGTFLDRQDTVCLSEFTNNTGYASVAAAVQACFDYAKANGKVVDARGWEGTVDSTVLMDGIEVVGGTWHGKADIRLLNSTFRNFVASTVRVAYWGGEVRIADYEFTSAPSNSKVTSILFQGNIAGGSYVIENGIHRNGKFGILQQGTGEAITNGVIRGITMMDMQGDGIEMNVINKHYDGGLLIENIFLENIDGTNAPIPLSNWGIGIGIAGQGPFGWDAAETQYAKNVTVRNVHAPRGVRQVVHFEVTRDSTCENVVANPDLSVSIGTGLTAAGVITYGCKRMTIDGVVGEPMNTGATSPNDIRIVMLEWGANQAGAGGTPGAACPSFDMTVRNVQTRTGRFYAGVGSDDDNTNTYHLENIHCYKMTLFGVATLLNMTNVTGVVFDAVGDDSSGGTSSNGLYPRKKTVLNMVNVNFYGPGMTEGALYSKARYSDISTLNSNVRAIPYTNIQGNVGVILSPVNRMYTLPNALATLDGNEFPTGKEFCEGTVLFKTDGSGGNFIVTRFGAYIPDDGNNFKVRAAAAGQTYLEQNLTPAGTQASTSWLYHKPISAGTRLNVPGAGPSGGTLTVTVVRAPYQVDNNIGNPVRIDITPAIVTAIPAGTQLAATYPVAYI
